± gives the standard deviation of the averaged measurements. Small differences around the control level are noise.
Assays:
Experiment in all cases: level (log10 ratio to DMSO vehicle control); higher = higher biomarker level / cell amount than vehicle control
Heptafluorobutyramide = compound: NC(=O)C(F)(F)C(F)(F)C(F)(F)F [Heptafluorobutyramide]; details: 2200 nM; in DMSO
Method: (§1)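 BioMAP Diversity Plus panel of 12 human primary cell co-culture systems (3C, 4H, LPS, SAg, BT, BF4T, BE3C, CASM3C, HDF3CGF, KF3CT, MyoF, Mphg). Compounds were added 1 h before stimulation and left for 24 h (MyoF 48 h; BT 72 h for soluble read-outs or 6 d for IgG). Biomarkers were read by ELISA, cytotoxicity by SRB, PBMC viability and proliferation by Alamar Blue. Each well value was divided by the mean of 8 DMSO control wells on the same plate and log10 transformed; duplicate blinded samples were tested at 4 concentrations.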

[1] = compound: FC(F)(F)C(F)(F)C(F)(F)C(F)(F)C(F)(F)C(F)(F)CC1CO1 [3-(Perfluorohexyl)-1,2-epoxypropane]; details: 2200 nM; in DMSO
Method: as §1

[2] = compound: Cc1ccc(S(=O)(=O)OCC(F)(F)C(F)(F)C(F)(F)C(F)(F)C(F)(F)C(F)F)cc1 [1H,1H,7H-Perfluoroheptyl 4-methylbenzenesulfonate]; details: 2200 nM; in DMSO
Method: as §1

[3] = compound: CC(C)(C)C(=O)CC(=O)C(F)(F)C(F)(F)C(F)(F)F [(Heptafluorobutanoyl)pivaloylmethane]; details: 2200 nM; in DMSO
Method: as §1

[4] = compound: OCCC(F)(F)C(F)(F)C(F)(F)C(F)(F)C(F)(F)C(F)(F)F [6:2 Fluorotelomer alcohol]; details: 2200 nM; in DMSO
Method: as §1

Perfluoropentanoic acid = compound: O=C(O)C(F)(F)C(F)(F)C(F)(F)C(F)(F)F [Perfluoropentanoic acid]; details: in DMSO
Method: as §1

1-(Perfluorohexyl)octane = compound: CCCCCCCCC(F)(F)C(F)(F)C(F)(F)C(F)(F)C(F)(F)C(F)(F)F [1-(Perfluorohexyl)octane]; details: in DMSO
Method: as §1

Octafluoroadipic acid = compound: O=C(O)C(F)(F)C(F)(F)C(F)(F)C(F)(F)C(=O)O [Octafluoroadipic acid]; details: 2200 nM; in DMSO
Method: as §1

[5] = compound: CN(C(=O)C(F)(F)C(F)(F)C(F)(F)F)[Si](C)(C)C [N-Methyl-N-trimethylsilylheptafluorobutyramide]; details: 2200 nM; in DMSO
Method: as §1

[6] = compound: O=S(=O)(O)CCC(F)(F)C(F)(F)C(F)(F)C(F)(F)C(F)(F)C(F)(F)C(F)(F)C(F)(F)F [8:2 Fluorotelomer sulfonic acid]; details: in DMSO
Method: as §1

[7] = compound: CCN(CCO)S(=O)(=O)C(F)(F)C(F)(F)C(F)(F)C(F)(F)C(F)(F)C(F)(F)C(F)(F)C(F)(F)F [N-Ethyl-N-(2-hydroxyethyl)perfluorooctanesulfonamide]; details: in DMSO
Method: as §1

1H,1H-Heptafluorobutanol = compound: OCC(F)(F)C(F)(F)C(F)(F)F [1H,1H-Heptafluorobutanol]; details: 2200 nM; in DMSO
Method: as §1

[8] = compound: O=C(O)C(F)(F)C(F)(F)C(F)(F)OC(F)(F)F [Perfluoro(4-methoxybutanoic) acid]; details: 2200 nM; in DMSO
Method: as §1

[9] = compound: O=C(O)C(F)(F)C(F)(F)C(F)(F)C(F)(F)C(F)(F)C(F)(F)C(F)(F)C(F)(F)C(F)(F)C(F)F [11-H-Perfluoroundecanoic acid]; details: 2200 nM; in DMSO
Method: as §1

[10] = compound: NCC(F)(F)C(F)(F)C(F)(F)C(F)(F)C(F)(F)C(F)(F)C(F)(F)F [1H,1H-Perfluorooctylamine]; details: 2200 nM; in DMSO
Method: as §1

Perfluoroheptanoic acid = compound: O=C(O)C(F)(F)C(F)(F)C(F)(F)C(F)(F)C(F)(F)C(F)(F)F [Perfluoroheptanoic acid]; details: in DMSO
Method: as §1

Test System	level (log10) (Heptafluorobutyramide)	level (log10) [1]	level (log10) [2]	level (log10) [3]	level (log10) [4]	level (log10) (Perfluoropentanoic acid; 2200 nM)	level (log10) (Perfluoropentanoic acid; 6700 nM)	level (log10) (Perfluoropentanoic acid; 20000 nM)	level (log10) (Perfluoropentanoic acid; 60000 nM)	level (log10) (1-(Perfluorohexyl)octane; 740 nM)	level (log10) (1-(Perfluorohexyl)octane; 2200 nM)	level (log10) (Octafluoroadipic acid)	level (log10) [5]	level (log10) ([6]; 2200 nM)	level (log10) ([6]; 6700 nM)	level (log10) ([6]; 20000 nM)	level (log10) ([6]; 60000 nM)	level (log10) ([7]; 2200 nM)	level (log10) ([7]; 6700 nM)	level (log10) ([7]; 20000 nM)	level (log10) (1H,1H-Heptafluorobutanol)	level (log10) [8]	level (log10) [9]	level (log10) [10]	level (log10) (Perfluoroheptanoic acid; 2200 nM)	level (log10) (Perfluoroheptanoic acid; 6700 nM)	level (log10) (Perfluoroheptanoic acid; 20000 nM)	level (log10) (Perfluoroheptanoic acid; 60000 nM)
BT:PBMC Cytotoxicity	0.0155 ± 0.0092	-0.0195 ± 0.0021	-0.0025 ± 0.005	0.0195 ± 0.032	-0.0195 ± 0.0035	0.02 ± 0.04	0.0075 ± 0.035	-0.0055 ± 0.0078	0.0255 ± 0.013	-0.0175 ± 0.025	-0.012 ± 0.021	0.0085 ± 0.015	0.002 ± 0.0057	0.0195 ± 0.035	0.006 ± 0.018	0.0115 ± 0.005	0.0505 ± 0.018	0.0065 ± 0.025	-0.003 ± 0.027	-0.0615 ± 0.0035	0.012 ± 0.025	0.019 ± 0.021	-0.029 ± 0.04	-0.017 ± 0.0028	-0.028 ± 0.017	-0.0175 ± 0.0064	0.001 ± 0.0057	0.063 ± 0.0014
BT:Secreted IgG	0.0445 ± 0.018	0.0065 ± 0.0092	-0.0085 ± 0.005	-0.0225 ± 0.025	0.007 ± 0.057	-0.0075 ± 0.0092	-0.0065 ± 0.016	0.0145 ± 0.0035	-0.009 ± 0.059	-0.0075 ± 0.026	-0.001 ± 0.038	0.0495 ± 0.06	0.029 ± 0.0099	-0.0035 ± 0.07	0.032 ± 0.0099	-0.014 ± 0.031	-0.025 ± 0.014	0.023 ± 0.0085	-0.002 ± 0.016	-1.16 ± 0.3	0.0355 ± 0.013	0.027 ± 0.052	0.0045 ± 0.037	0.033 ± 0.054	0.0045 ± 0.0064	0.0185 ± 0.0092	0.007 ± 0.027	-0.0365 ± 0.011
BT:sIL-2	0.0355 ± 0.0078	-0.0205 ± 0.0035	0.0525 ± 0.067	-0.021 ± 0.0085	-0.0095 ± 0.13	0.033 ± 0.11	-0.0115 ± 0.17	0.0385 ± 0.00071	0.0385 ± 0.0078	0.026	0.028 ± 0.057	0.048 ± 0.079	-0.0315 ± 0.016	0.0225 ± 0.06	-0.023 ± 0.073	0.0195 ± 0.057	0.009 ± 0.011	-0.012 ± 0.021	-0.046 ± 0.03	-0.339 ± 0.076	0.065 ± 0.1	0.027 ± 0.057	-0.054 ± 0.038	0.03 ± 0.065	-0.013 ± 0.068	-0.0105 ± 0.14	0.0035 ± 0.037	-0.008 ± 0.075
BT:sIL-6	0.046 ± 0.072	-0.0335 ± 0.029	0.0045 ± 0.03	0.013 ± 0.033	0.0145 ± 0.04	0.028 ± 0.018	-0.0355 ± 0.1	0.01 ± 0.051	0.022 ± 0.04	-0.013 ± 0.0028	0.0075 ± 0.018	0.049 ± 0.054	-0.0735 ± 0.012	0.0145 ± 0.0064	0.015 ± 0.035	0.0445 ± 0.015	-0.005 ± 0.085	0.115 ± 0.11	0.078 ± 0.0014	-0.049 ± 0.054	0.0355 ± 0.043	0.0175 ± 0.064	-0.052 ± 0.021	0.0165 ± 0.032	-0.022 ± 0.079	0.02 ± 0.065	0.0175 ± 0.044	-0.0375 ± 0.071
BT:sIL-17A	-0.125 ± 0.099	-0.0825 ± 0.039	0.0175 ± 0.049	-0.166 ± 0.18	-0.0085 ± 0.066	-0.041 ± 0.13	0.0585 ± 0.042	-0.0535 ± 0.0078	0.055 ± 0.13	0.0075 ± 0.0064	0.113 ± 0.13	0.0635 ± 0.12	-0.013 ± 0.011	-0.053 ± 0.17	-0.152 ± 0.057	-0.012 ± 0.013	-0.0805 ± 0.16	0.094 ± 0.15	0.122 ± 0.083	-0.631 ± 0.21	0.052 ± 0.035	-0.032 ± 0.061	-0.072 ± 0.028	0.0845 ± 0.013	0.07 ± 0.098	0.047 ± 0.027	0.0865 ± 0.16	-0.0095 ± 0.22
BT:sIL-17F	0.0095 ± 0.012	-0.0725 ± 0.086	-0.0575 ± 0.0021	-0.12 ± 0.17	-0.0955 ± 0.14	0.02 ± 0.14	-0.06 ± 0.027	-0.0325 ± 0.044	0.0375 ± 0.19	0.0075 ± 0.015	0.0105 ± 0.042	0.0655 ± 0.15	-0.03 ± 0.083	-0.042 ± 0.024	-0.0295 ± 0.091	0.053 ± 0.0071	0.018	-0.018 ± 0.092	-0.0225 ± 0.029	-0.299 ± 0.037	0.026 ± 0.011	0.0235 ± 0.015	-0.042 ± 0.058	0.0125 ± 0.011	0.087 ± 0.22	-0.0725 ± 0.13	-0.023 ± 0.21	-0.013 ± 0.045
BT:sTNF-alpha	0.07 ± 0.058	-0.0065 ± 0.12	0.0505 ± 0.05	0.0485 ± 0.16	0.0085 ± 0.021	0.111 ± 0.089	-0.0575 ± 0.25	0.0875 ± 0.012	0.105 ± 0.04	0.0075 ± 0.11	0.0695 ± 0.0021	-0.007 ± 0.057	-0.0425 ± 0.037	0.005 ± 0.089	0.006 ± 0.095	0 ± 0.0071	0.009 ± 0.034	0.121 ± 0.12	-0.031 ± 0.082	-0.312 ± 0.1	0.0275 ± 0.084	0.0285 ± 0.039	-0.202 ± 0.09	-0.0425 ± 0.12	-0.0335 ± 0.09	-0.0045 ± 0.11	-0.0405 ± 0.05	-0.064 ± 0.17
CASM3C:CCL2/MCP-1	0.0195 ± 0.042	0.023 ± 0.061	0.004 ± 0.016	0.0095 ± 0.03	0.029 ± 0.058	-0.0055 ± 0.029	-0.0085 ± 0.005	-0.0125 ± 0.019	-0.0015 ± 0.015	0.0015 ± 0.016	0.001 ± 0.0042	0.018 ± 0.024	0.008 ± 0.021	0.0175 ± 0.036	-0.0095 ± 0.00071	-0.003 ± 0.0057	0.016 ± 0.04	0.0155 ± 0.039	0.003 ± 0.017	-0.017 ± 0.0057	0.017 ± 0.027	0.0155 ± 0.029	0.012 ± 0.0028	0.015 ± 0.075	0.019 ± 0.033	-0.0115 ± 0.015	-0.013 ± 0.011	0.032 ± 0.044

Source: the supplement of paper PMC10331698
